Results on 1 molecule are retold here after US20230192797A1 (published 2023).

Sequences of proteins named here, by UniProt entry; tags and fusion partners are left off. Residues count along the entry.
UniProt Q9NZQ7, residues 19-290: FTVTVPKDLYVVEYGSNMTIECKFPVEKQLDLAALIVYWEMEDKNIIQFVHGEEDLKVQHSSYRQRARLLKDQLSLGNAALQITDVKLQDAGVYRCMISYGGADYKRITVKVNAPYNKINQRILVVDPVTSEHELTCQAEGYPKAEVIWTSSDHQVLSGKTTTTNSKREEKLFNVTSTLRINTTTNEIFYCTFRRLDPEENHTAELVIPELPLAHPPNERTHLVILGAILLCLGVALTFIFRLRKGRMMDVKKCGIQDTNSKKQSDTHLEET

Results are given in words; binding and its absence hold for the method and conditions named. Some binding calls cover weakened binding; strength is not graded here.

In the test the target is PD-L1 on the surface of CHO-PD-L1 cells (UniProt Q9NZQ7 19-290, limits assumed). As to the kind of experiment: flow cytometry (FACS) on CHO-PD-L1 cells.

B1: 794-h1-71 (antibody, human IgG1, kappa, V domains shown)
VH: QVQLQQSGPGLVKPSQTLSLTCAVSGDSITSGYWNWIRKFPSRGLEYMGYISYSGSTYYNPFLKSRISINRDTSKNQYYLQLNSVTPEDTAVYYCAKMGDWLAWFAYWGQGTLVTVSS
VL: EIVMTQSPPTLSLSPGERVTLSCKSSQSLLYSSNQKNSLAWYQQKPGQAPRLLIYWASTRESGIPARFSGSGSGTDFTLTISSLQPEDFAVYYCQQYYGYPYTFGQGTKLEIKR
notes: also called humanized PD-L1 antibody
Regarding B1, the binding result was “binds”.
